{
  "source": "patent US20220348670A1",
  "about": "(BIODURO BEIJING, published 2022)",
  "key": {"[1]": {"biological_target": "T1, OX40-mFc protein (UniProt P43489 29-214)", "T1 sequence (looked up)": "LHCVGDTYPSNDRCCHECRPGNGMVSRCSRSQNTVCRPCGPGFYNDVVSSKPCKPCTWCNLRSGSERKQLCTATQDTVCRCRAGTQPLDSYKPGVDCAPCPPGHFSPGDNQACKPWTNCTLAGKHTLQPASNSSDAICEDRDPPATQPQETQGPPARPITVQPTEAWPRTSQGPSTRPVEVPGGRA", "assay": "phage ELISA on coated OX40-mFc"}, "[2]": {"biological_target": "OX40 (CRD2-3-4) (human), truncated human OX40 that lacks the CRD1 domain (human) (UniProt P43489)", "assay": "FACS on transiently transfected CHO-S cells"}},
  "note": "Results are given in words; binding and its absence hold for the method and conditions named. Some entries that bind do so weakly or less than the wild type. For some assays here: Where a sequence is shown, tags or fusion partners need not be part of it.",
  "data": [
    {"binder": "OX40 BC3-1 (phage-displayed VHH clone) (VHH, Tested as phage in monoclonal culture supernatant (M13 display), not as purified protein; the phage coat fusion is not described) VHH: EVQLVESGGGLVQPGGSLRLSCAASGSIFSVYVMGWFRQAPGKGRELVAAITPFDDNTYYPDSVEGRFTISRDNAKRMVYLQMNSLRAEDTAVYYCAADWEWPEYNYWGQGTQVTVSS", "values": [
      {"measurement": "binding", "setting": "[1]", "result": "binds"}
    ]},
    {"binder": "anti-human OX40 antibody BC3-1 (OX40 VHH-Fc) (Fc fusion, VHH fused through a linker to human IgG Fc, expressed in ExpiCHO, purified on Protein A; also called OX40 BC3-1; OX40 VHH-Fc antibody; not shown: linker encoded by the CMV-12GS-FC vector; human IgG FC fragment (hFC)) EVQLVESGGGLVQPGGSLRLSCAASGSIFSVYVMGWFRQAPGKGRELVAAITPFDDNTYYPDSVEGRFTISRDNAKRMVYLQMNSLRAEDTAVYYCAADWEWPEYNYWGQGTQVTVSS", "values": [
      {"measurement": "binding", "setting": "[2]", "result": "binds"}
    ]},
    {"binder": "OX40 BC3-4 (phage-displayed VHH clone) (VHH, Tested as phage in monoclonal culture supernatant (M13 display), not as purified protein; the phage coat fusion is not described) VHH: EVQLVESGGGLVQPGGSLRLSCAASGFIFSAYFMGWFRQAPGKGRELVAAINSNDDITYYPDSVEGRFTISRDNAKRMVYLQMNSLRAEDTAVYYCAAWLGAENYGYWGQGTQVTVSS", "values": [
      {"measurement": "binding", "setting": "[1]", "result": "binds"}
    ]},
    {"binder": "anti-human OX40 antibody BC3-4 (OX40 VHH-Fc) (Fc fusion, VHH fused through a linker to human IgG Fc, expressed in ExpiCHO, purified on Protein A; also called OX40 BC3-4; OX40 VHH-Fc antibody; not shown: linker encoded by the CMV-12GS-FC vector; human IgG FC fragment (hFC)) EVQLVESGGGLVQPGGSLRLSCAASGFIFSAYFMGWFRQAPGKGRELVAAINSNDDITYYPDSVEGRFTISRDNAKRMVYLQMNSLRAEDTAVYYCAAWLGAENYGYWGQGTQVTVSS", "values": [
      {"measurement": "binding", "setting": "[2]", "result": "binds"}
    ]},
    {"binder": "OX40 BC3-6 (phage-displayed VHH clone) (VHH, Tested as phage in monoclonal culture supernatant (M13 display), not as purified protein; the phage coat fusion is not described) VHH: EVQLVESGGGLVQPGGSLRLSCAASGSILDSNLMGWFRQAPGKGRELVASINSYDDNTYYPDSVEGRFTISRDNAKRMVYLQMNSLRAEDTAVYYCAAQVFVGWPYTDQMHDYWGQGTQVTVSS", "values": [
      {"measurement": "binding", "setting": "[1]", "result": "binds"}
    ]},
    {"binder": "anti-human OX40 antibody BC3-6 (OX40 VHH-Fc) (Fc fusion, VHH fused through a linker to human IgG Fc, expressed in ExpiCHO, purified on Protein A; also called OX40 BC3-6; OX40 VHH-Fc antibody; not shown: linker encoded by the CMV-12GS-FC vector; human IgG FC fragment (hFC)) EVQLVESGGGLVQPGGSLRLSCAASGSILDSNLMGWFRQAPGKGRELVASINSYDDNTYYPDSVEGRFTISRDNAKRMVYLQMNSLRAEDTAVYYCAAQVFVGWPYTDQMHDYWGQGTQVTVSS", "values": [
      {"measurement": "binding", "setting": "[2]", "result": "binds"}
    ]},
    {"binder": "OX40 BC3-7 (phage-displayed VHH clone) (VHH, Tested as phage in monoclonal culture supernatant (M13 display), not as purified protein; the phage coat fusion is not described) VHH: EVQLVESGGGLVQPGGSLRLSCAASGSIYDFDVMGWFRQAPGKGRELVAAINSFGDITYYPDSVEGRFTISRDNAKRMVYLQMNSLRAEDTAVYYCAADWHVLIQQVLGYWGQGTQVTVSS", "values": [
      {"measurement": "binding", "setting": "[1]", "result": "binds"}
    ]},
    {"binder": "anti-human OX40 antibody BC3-7 (OX40 VHH-Fc) (Fc fusion, VHH fused through a linker to human IgG Fc, expressed in ExpiCHO, purified on Protein A; also called OX40 BC3-7; OX40 VHH-Fc antibody; not shown: linker encoded by the CMV-12GS-FC vector; human IgG FC fragment (hFC)) EVQLVESGGGLVQPGGSLRLSCAASGSIYDFDVMGWFRQAPGKGRELVAAINSFGDITYYPDSVEGRFTISRDNAKRMVYLQMNSLRAEDTAVYYCAADWHVLIQQVLGYWGQGTQVTVSS", "values": [
      {"measurement": "binding", "setting": "[2]", "result": "binds"}
    ]}
  ]
}
